In paper PMC3885706:
These are yes or no findings as the source states them, for the method shown. In cells and extracts the contact can be indirect. Some results given as binding are weak or reduced against the parent protein; the word gives no strength.

Sequences of proteins named here, by UniProt entry; tags and fusion partners are left off.
UniProt P30937: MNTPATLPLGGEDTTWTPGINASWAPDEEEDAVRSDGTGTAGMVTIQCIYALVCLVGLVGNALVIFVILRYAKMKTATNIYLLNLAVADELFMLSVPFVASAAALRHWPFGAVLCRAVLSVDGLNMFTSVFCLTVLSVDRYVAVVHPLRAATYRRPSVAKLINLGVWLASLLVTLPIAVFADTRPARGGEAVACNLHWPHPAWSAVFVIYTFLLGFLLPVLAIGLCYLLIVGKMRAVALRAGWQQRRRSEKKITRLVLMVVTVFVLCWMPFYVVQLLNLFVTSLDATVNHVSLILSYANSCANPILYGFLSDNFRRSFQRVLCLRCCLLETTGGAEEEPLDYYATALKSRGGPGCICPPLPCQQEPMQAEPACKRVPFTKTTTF

Target: somatostatin receptor 4 (SSTR4), endogenous in rat brain, spinal cord and cultured striatal neurons (rat (endogenous in brain, spinal cord and cultured striatal neurons)) (UniProt P30937)
Assay: co-IP; rat cortex, striatum and spinal cord tissue lysate (250 µg protein in 50 mM HEPES, 2 mM CaCl2, 5 mM MgCl2, pH 7.5), basal or treated with L-803087 (10 nM), SB-205607 (10 nM) alone or in combination for 30 min at 37°C; immunoprecipitated with SSTR4 antibody, blotted for δOR

## δ-Opioid receptor (δOR), endogenous in rat brain, spinal cord and cultured striatal neurons (from UniProt P33533 1-372)
  binding: binds
